Experimental data from paper PMC3893189.
These are yes or no findings as the source states them, for the method shown. Some results given as binding are weak or reduced against the parent protein; the word gives no strength. Where a sequence is shown, tags or fusion partners need not be part of it.

Molecular target: PprA, bacterial two-hybrid fusions (pUTpprA and pKNTpprA) (Deinococcus radiodurans) (UniProt O32504)
Experiment: two-hybrid; bacterial two-hybrid (pUT18 and pKNT25 fusions) in E. coli BTH101; colonies on LB with X-gal and IPTG at 30°C overnight; β-galactosidase activity with ONPG

B1: PprA, bacterial two-hybrid fusions (pUTpprA and pKNTpprA) (protein, UniProt O32504 1-300)
chain: MLPLAFLICSGHNKGSMARAKAKDQTDGIYAAFDTLMSTAGVDSQIAALAASEADAGTLDAALTQSLQEAQGRWGLGLHHLRHEARLTDDGDIEILTDGRPSARVSEGFGALAQAYAPMQALDERGLSQWAALGEGYRAPGDLPLAQLKVLIEHARDFETDWSAGRGETFQRVWRKGDTLFVEVARPASAEAALSDAAWDVIASIKDRAFQRELMRRSEKDGMLGALLGARHAGAKANLAQLPEAHFTVQAFVQTLSGAAARNAEEYRAALKTAAAALEEYQGVTTRQLSEVLRHGLRES
  binding: binds
